Results from article PMC7135998.
No constants are given. Whether binding was seen depends on the method and setting. Binding seen in cells or lysates may run through a third protein. Some binding calls cover weakened binding; strength is not graded here.

Protein sequences, listed by entry. Tags and fused reporters are not part of them.
UniProt P12004: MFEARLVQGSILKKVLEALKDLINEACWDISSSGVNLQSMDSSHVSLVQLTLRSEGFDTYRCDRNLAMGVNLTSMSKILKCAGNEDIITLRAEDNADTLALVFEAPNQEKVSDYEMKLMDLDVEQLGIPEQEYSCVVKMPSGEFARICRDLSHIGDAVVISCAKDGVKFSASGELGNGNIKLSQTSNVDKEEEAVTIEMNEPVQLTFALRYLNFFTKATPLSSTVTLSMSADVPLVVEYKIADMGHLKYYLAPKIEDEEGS

Legend:
[1] = target: T1, endogenous SET8 (N-lysine methyltransferase 5A) (human (endogenous in HEK293T)) (UniProt Q9NQR1); assay: co-IP; 1 mg total HEK293T cellular extract with 5 μg anti-SET8 antibody (Active Motif or Millipore), normal IgG as control, immunoblot; endogenous proteins; also from cells treated with FQI1 (less tubulin co-precipitated, Fig. S4C)
T1 sequence: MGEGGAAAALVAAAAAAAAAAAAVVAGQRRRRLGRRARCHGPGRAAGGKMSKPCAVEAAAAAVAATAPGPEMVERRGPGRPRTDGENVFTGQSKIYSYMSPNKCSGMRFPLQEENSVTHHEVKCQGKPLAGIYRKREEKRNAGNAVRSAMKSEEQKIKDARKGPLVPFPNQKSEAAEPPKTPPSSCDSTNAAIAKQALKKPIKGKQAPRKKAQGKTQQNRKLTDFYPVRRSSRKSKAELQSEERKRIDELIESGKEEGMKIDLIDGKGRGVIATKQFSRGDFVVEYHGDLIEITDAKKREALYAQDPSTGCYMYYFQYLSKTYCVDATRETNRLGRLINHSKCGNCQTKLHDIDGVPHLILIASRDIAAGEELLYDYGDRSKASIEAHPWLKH

[2] = target: T2, endogenous LSF (human (endogenous in HEK293T)) (UniProt Q12800); assay: co-IP; HEK293T cell lysates with anti-LSF antibody (Millipore 17-10252) against control IgG, immunoblot; endogenous proteins; also from cells treated with vehicle or 2.5 μM FQI1 for 24 h (α-tubulin co-precipitate reduced)
T2 sequence: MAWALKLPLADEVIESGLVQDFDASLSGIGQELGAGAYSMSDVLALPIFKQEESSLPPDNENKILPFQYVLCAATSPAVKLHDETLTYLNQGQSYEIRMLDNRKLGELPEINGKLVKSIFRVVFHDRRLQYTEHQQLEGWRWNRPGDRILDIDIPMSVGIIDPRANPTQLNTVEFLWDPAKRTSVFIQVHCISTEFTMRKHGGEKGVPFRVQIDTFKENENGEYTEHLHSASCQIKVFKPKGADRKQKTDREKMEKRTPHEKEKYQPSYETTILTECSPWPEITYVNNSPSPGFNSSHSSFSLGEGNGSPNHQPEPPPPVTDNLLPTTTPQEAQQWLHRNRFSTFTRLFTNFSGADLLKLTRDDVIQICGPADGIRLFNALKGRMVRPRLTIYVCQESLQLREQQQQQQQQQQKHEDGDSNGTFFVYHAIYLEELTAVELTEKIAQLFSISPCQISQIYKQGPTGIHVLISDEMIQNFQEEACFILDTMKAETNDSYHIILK

In the case of “endogenous PCNA (proliferating cell nuclear antigen) (from UniProt P12004 1-261)”, the binding [1] is reported as “binds”.

B1: endogenous SET8 (N-lysine methyltransferase 5A) (protein, UniProt Q9NQR1 1-393)
chain: MGEGGAAAALVAAAAAAAAAAAAVVAGQRRRRLGRRARCHGPGRAAGGKMSKPCAVEAAAAAVAATAPGPEMVERRGPGRPRTDGENVFTGQSKIYSYMSPNKCSGMRFPLQEENSVTHHEVKCQGKPLAGIYRKREEKRNAGNAVRSAMKSEEQKIKDARKGPLVPFPNQKSEAAEPPKTPPSSCDSTNAAIAKQALKKPIKGKQAPRKKAQGKTQQNRKLTDFYPVRRSSRKSKAELQSEERKRIDELIESGKEEGMKIDLIDGKGRGVIATKQFSRGDFVVEYHGDLIEITDAKKREALYAQDPSTGCYMYYFQYLSKTYCVDATRETNRLGRLINHSKCGNCQTKLHDIDGVPHLILIASRDIAAGEELLYDYGDRSKASIEAHPWLKH
With B1 the binding [2] was “binds”.

B2: endogenous LSF (protein, UniProt Q12800 1-502)
chain: MAWALKLPLADEVIESGLVQDFDASLSGIGQELGAGAYSMSDVLALPIFKQEESSLPPDNENKILPFQYVLCAATSPAVKLHDETLTYLNQGQSYEIRMLDNRKLGELPEINGKLVKSIFRVVFHDRRLQYTEHQQLEGWRWNRPGDRILDIDIPMSVGIIDPRANPTQLNTVEFLWDPAKRTSVFIQVHCISTEFTMRKHGGEKGVPFRVQIDTFKENENGEYTEHLHSASCQIKVFKPKGADRKQKTDREKMEKRTPHEKEKYQPSYETTILTECSPWPEITYVNNSPSPGFNSSHSSFSLGEGNGSPNHQPEPPPPVTDNLLPTTTPQEAQQWLHRNRFSTFTRLFTNFSGADLLKLTRDDVIQICGPADGIRLFNALKGRMVRPRLTIYVCQESLQLREQQQQQQQQQQKHEDGDSNGTFFVYHAIYLEELTAVELTEKIAQLFSISPCQISQIYKQGPTGIHVLISDEMIQNFQEEACFILDTMKAETNDSYHIILK
B2 was tested, and the binding [1] was “binds”.

B3: endogenous UHRF1 (protein, UniProt Q96T88 1-793)
chain: MWIQVRTMDGRQTHTVDSLSRLTKVEELRRKIQELFHVEPGLQRLFYRGKQMEDGHTLFDYEVRLNDTIQLLVRQSLVLPHSTKERDSELSDTDSGCCLGQSESDKSSTHGEAAAETDSRPADEDMWDETELGLYKVNEYVDARDTNMGAWFEAQVVRVTRKAPSRDEPCSSTSRPALEEDVIYHVKYDDYPENGVVQMNSRDVRARARTIIKWQDLEVGQVVMLNYNPDNPKERGFWYDAEISRKRETRTARELYANVVLGDDSLNDCRIIFVDEVFKIERPGEGSPMVDNPMRRKSGPSCKHCKDDVNRLCRVCACHLCGGRQDPDKQLMCDECDMAFHIYCLDPPLSSVPSEDEWYCPECRNDASEVVLAGERLRESKKKAKMASATSSSQRDWGKGMACVGRTKECTIVPSNHYGPIPGIPVGTMWRFRVQVSESGVHRPHVAGIHGRSNDGAYSLVLAGGYEDDVDHGNFFTYTGSGGRDLSGNKRTAEQSCDQKLTNTNRALALNCFAPINDQEGAEAKDWRSGKPVRVVRNVKGGKNSKYAPAEGNRYDGIYKVVKYWPEKGKSGFLVWRYLLRRDDDEPGPWTKEGKDRIKKLGLTMQYPEGYLEALANREREKENSKREEEEQQEGGFASPRTGKGKWKRKSAGGGPSRAGSPRRTSKKTKVEPYSLTAQQSSLIREDKSNAKLWNEVLASLKDRPASGSPFQLFLSKVEETFQCICCQELVFRPITTVCQHNVCKDCLDRSFRAQVFSCPACRYDLGRSYAMQVNQPLQTVLNQLFPGYGNGR
B3 was tested, and the binding [1] was “binds”.
